Experimental data as given in the supplement of paper PMC12067093, “Discovery and optimisation of a covalent ligand for TRIM25 and its application to targeted protein ubiquitination” (Chemical Science, 2025).
This is one part of the list.

Chains of the proteins cited; added tags and fusions are not shown. Lines headed by an entry give the natural chain unless they say otherwise; changes in a name come on top.
UniProt Q5VT52: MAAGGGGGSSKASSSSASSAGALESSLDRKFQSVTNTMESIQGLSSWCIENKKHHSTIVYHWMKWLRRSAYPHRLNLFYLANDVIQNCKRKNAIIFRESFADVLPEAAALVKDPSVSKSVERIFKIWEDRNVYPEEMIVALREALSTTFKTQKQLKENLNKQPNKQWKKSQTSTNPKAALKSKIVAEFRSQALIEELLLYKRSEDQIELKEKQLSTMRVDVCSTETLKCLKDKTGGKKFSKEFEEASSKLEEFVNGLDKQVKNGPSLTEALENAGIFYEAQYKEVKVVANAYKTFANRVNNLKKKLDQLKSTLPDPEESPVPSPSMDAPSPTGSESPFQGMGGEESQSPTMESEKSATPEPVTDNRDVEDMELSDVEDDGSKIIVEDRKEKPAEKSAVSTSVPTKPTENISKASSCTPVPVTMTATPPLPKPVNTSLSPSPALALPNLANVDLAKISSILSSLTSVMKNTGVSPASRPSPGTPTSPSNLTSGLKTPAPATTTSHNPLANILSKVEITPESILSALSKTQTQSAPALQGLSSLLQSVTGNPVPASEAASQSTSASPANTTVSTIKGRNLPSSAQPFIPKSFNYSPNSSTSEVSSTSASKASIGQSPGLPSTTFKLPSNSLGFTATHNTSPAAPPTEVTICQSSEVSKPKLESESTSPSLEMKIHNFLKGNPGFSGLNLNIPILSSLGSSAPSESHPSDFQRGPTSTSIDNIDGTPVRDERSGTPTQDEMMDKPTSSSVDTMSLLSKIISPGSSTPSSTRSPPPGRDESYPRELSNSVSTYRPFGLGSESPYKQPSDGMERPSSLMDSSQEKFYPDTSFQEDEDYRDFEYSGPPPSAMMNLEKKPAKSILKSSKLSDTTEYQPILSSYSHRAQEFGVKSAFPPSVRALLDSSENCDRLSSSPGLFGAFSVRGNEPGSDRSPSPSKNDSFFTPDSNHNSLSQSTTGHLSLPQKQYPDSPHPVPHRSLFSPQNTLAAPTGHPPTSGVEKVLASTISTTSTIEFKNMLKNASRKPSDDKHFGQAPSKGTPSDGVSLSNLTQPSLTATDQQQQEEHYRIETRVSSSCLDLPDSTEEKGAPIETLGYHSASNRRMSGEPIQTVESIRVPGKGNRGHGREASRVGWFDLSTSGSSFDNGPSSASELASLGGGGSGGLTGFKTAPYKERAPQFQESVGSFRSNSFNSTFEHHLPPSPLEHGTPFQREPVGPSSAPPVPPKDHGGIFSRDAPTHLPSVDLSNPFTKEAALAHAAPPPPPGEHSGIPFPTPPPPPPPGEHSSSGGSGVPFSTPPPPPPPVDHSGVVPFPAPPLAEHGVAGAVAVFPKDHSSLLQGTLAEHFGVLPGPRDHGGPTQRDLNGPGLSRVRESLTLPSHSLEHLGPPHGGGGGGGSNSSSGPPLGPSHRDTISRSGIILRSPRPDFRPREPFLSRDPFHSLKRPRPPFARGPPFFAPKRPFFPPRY
UniProt Q8IZ73: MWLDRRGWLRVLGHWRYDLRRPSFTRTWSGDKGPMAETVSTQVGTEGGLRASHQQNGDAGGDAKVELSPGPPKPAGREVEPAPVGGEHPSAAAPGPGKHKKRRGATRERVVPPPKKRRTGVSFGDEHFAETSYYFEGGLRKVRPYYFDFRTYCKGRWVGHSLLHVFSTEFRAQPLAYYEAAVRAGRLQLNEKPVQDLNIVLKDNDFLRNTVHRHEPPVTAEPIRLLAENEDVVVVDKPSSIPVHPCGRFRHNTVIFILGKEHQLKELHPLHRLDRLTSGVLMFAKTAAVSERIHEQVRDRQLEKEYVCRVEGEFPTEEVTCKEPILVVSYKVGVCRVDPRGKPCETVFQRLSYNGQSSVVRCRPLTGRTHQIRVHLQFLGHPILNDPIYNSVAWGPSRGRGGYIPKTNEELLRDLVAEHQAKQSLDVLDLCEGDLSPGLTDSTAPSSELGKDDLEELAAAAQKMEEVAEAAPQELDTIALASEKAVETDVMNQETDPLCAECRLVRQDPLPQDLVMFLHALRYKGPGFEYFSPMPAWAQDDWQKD
UniProt Q14684: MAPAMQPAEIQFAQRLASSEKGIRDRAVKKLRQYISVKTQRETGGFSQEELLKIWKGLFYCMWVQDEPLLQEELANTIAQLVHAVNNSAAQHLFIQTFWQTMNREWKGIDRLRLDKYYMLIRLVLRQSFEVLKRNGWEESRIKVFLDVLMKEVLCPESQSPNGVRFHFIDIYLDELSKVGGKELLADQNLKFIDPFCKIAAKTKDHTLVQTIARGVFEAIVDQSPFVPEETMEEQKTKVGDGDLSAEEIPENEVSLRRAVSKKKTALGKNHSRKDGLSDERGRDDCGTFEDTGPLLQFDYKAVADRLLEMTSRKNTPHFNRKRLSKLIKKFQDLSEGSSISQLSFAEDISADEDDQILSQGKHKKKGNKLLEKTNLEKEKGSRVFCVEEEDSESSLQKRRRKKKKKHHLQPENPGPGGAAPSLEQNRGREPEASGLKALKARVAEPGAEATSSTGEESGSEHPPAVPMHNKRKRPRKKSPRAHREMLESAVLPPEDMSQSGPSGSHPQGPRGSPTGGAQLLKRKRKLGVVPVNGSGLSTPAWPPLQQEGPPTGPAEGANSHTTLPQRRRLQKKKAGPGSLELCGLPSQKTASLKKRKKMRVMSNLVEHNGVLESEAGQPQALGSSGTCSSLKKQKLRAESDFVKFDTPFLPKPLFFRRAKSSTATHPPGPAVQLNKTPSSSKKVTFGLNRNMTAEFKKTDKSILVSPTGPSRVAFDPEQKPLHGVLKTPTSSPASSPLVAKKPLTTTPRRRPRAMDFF
UniProt O43818: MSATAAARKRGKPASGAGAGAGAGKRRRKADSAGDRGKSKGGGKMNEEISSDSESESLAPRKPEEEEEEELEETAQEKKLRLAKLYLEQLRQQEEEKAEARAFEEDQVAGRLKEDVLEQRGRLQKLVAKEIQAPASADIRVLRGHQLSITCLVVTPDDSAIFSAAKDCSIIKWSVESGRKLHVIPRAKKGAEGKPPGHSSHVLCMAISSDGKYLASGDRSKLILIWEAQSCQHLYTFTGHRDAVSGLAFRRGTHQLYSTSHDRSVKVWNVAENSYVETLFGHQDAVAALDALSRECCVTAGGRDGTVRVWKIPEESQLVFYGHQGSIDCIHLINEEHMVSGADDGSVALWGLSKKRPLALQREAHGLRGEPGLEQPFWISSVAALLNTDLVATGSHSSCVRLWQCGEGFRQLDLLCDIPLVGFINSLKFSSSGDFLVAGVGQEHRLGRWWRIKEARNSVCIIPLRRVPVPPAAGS
UniProt Q5JTH9: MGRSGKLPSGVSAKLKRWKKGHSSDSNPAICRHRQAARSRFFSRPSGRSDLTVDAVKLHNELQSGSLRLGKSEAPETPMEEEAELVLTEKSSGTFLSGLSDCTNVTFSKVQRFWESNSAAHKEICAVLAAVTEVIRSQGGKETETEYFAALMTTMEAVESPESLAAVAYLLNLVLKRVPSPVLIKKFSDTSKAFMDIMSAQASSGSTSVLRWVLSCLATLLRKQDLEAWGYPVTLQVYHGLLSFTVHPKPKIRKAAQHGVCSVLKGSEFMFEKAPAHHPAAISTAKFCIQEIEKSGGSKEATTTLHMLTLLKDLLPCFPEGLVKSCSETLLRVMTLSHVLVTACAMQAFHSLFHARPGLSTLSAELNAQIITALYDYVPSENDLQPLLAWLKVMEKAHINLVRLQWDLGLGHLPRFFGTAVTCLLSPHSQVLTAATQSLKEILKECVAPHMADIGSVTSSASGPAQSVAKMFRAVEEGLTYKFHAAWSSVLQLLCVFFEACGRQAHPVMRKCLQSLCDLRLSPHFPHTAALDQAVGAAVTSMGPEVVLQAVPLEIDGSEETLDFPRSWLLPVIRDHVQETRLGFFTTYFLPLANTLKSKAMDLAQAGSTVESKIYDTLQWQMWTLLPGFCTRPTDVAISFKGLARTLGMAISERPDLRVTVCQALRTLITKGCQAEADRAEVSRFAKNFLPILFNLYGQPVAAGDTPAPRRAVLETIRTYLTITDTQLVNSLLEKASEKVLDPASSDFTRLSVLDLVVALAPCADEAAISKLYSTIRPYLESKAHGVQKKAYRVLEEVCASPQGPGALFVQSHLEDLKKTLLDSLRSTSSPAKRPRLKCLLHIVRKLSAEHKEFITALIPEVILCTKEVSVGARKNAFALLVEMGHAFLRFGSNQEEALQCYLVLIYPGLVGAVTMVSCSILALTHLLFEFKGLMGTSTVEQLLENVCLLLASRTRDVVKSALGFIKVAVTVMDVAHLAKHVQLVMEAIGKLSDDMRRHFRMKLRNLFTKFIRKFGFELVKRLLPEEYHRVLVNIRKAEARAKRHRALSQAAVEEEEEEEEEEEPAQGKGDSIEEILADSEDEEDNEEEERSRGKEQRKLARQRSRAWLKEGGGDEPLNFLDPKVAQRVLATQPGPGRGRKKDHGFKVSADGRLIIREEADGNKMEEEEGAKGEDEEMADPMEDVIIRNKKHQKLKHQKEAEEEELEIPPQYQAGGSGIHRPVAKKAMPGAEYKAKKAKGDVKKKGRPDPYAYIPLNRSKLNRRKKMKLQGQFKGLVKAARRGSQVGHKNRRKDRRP
UniProt Q9H714: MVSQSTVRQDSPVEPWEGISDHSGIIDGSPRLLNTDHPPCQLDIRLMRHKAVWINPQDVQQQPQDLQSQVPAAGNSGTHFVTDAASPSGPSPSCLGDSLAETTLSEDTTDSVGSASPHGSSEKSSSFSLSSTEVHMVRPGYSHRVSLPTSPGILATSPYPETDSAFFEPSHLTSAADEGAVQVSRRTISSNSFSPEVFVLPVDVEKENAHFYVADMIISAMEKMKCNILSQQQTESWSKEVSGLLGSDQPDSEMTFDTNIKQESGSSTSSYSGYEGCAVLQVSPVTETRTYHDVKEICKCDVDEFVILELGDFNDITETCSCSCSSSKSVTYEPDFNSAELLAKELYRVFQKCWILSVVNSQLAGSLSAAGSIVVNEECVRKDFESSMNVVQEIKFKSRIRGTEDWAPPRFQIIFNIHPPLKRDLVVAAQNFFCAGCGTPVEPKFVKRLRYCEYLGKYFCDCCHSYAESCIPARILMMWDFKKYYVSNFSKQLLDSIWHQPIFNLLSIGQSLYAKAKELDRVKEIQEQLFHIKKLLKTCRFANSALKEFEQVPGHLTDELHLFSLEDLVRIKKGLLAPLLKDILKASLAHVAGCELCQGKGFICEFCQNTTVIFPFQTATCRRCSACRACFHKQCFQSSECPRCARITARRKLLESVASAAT
UniProt P28702: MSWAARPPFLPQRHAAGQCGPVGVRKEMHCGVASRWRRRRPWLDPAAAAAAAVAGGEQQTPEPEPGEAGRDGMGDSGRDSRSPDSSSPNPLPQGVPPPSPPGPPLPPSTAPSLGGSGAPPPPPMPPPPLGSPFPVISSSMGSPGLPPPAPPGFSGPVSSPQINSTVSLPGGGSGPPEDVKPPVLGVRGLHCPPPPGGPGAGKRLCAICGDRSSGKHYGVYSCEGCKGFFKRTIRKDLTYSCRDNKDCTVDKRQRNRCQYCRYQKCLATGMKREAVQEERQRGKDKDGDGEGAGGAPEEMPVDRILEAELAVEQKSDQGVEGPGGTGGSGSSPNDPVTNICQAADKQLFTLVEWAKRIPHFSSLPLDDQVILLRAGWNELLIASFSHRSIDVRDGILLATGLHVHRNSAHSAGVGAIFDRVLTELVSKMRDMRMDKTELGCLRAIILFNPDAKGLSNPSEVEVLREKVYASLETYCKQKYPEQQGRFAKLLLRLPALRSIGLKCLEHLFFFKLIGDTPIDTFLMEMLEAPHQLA
UniProt Q96DX4: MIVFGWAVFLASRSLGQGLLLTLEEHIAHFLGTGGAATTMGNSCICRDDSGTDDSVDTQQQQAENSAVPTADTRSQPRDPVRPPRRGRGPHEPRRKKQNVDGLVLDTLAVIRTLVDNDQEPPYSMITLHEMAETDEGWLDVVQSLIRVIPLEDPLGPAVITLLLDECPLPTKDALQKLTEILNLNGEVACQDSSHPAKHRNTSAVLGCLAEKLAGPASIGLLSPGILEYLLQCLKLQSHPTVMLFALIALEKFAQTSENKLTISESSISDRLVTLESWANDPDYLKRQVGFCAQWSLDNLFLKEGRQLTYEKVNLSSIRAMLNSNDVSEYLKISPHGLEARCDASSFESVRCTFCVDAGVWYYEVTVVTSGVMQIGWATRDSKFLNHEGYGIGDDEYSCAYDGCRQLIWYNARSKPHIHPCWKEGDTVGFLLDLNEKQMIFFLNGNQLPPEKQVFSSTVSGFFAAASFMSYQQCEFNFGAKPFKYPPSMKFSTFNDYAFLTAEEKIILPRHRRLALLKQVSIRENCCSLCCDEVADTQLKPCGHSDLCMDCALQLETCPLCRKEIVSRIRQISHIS

Compound: CC1Cc2ccccc2N1C(=O)C1CCCN(C1)C(=O)CCl (mixture of isomers) [TRIM25 ligand 11 (diastereomer mixture)]
Test: probe-labelled cysteine peptide fold change vs DMSO (competition) (log2 fold change); higher = less target engagement (more negative = stronger competition)
Settings: THP-1, incubation time: 4 h
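Note: competitive chemoproteomic profiling in live THP-1 cells with an iodoacetamide desthiobiotin (IA-DTB) probe, comparing probe-labelled peptide intensities in compound-treated cells against DMSO-treated controls.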

Row | Target | probe-labelled cysteine peptide fold change (10 µM) | probe-labelled cysteine peptide fold change (50 µM)
1 | RPS2_P15880_188_CGSVLVR (UniProt P15880) | -0.15 | -0.112
2 | RSL1D1_O76021_211_SGSCSAIR (UniProt O76021) | 0.164 | 0.175
3 | RPS27A_P62979_121_RECPSDECGAGVFMASHFDR (UniProt P62979) | 0.0261 | -0.0993
4 | RPRD2_Q5VT52_88_LNLFYLANDVIQNCK (UniProt Q5VT52) | -0.0422 | 0.0619
5 | RPUSD2_Q8IZ73_499+502_AVETDVMNQETDPLCAECR (UniProt Q8IZ73) | -0.226 | -0.093
6 | RRP1B_Q14684_583_AGPGSLELCGLPSQK (UniProt Q14684) | -0.0951 | -0.112
7 | RPS12_P25398_106_KVVGCSCVVVK (UniProt P25398) | -0.135 | -0.0639
8 | RPS17_P08708_35_VCEEIAIIPSKK (UniProt P08708) | -0.257 | -0.162
9 | RPS6_P62753_83_GHSCYR (UniProt P62753) | 0.163 | 0.221
10 | RRP9_O43818_460_NSVCIIPLR (UniProt O43818) | -0.351 | 0.077
11 | RRP12_Q5JTH9_261_AAQHGVCSVLK (UniProt Q5JTH9) | 0.068 | -0.234
12 | RPS12_P25398_92_LGEWVGLCK (UniProt P25398) | -0.0631 | -0.0304
13 | RUBCNL_Q9H714_641_QCFQSSECPR (UniProt Q9H714) | 0.144 | 0.15
14 | RXRB_P28702_241_DLTYSCR (UniProt P28702) | -0.165 | 0.0469
15 | RSPRY1_Q96DX4_208_NTSAVLGCLAEK (UniProt Q96DX4) | -0.0649 | 0.028

A portion from further up:
Row | Target | probe-labelled cysteine peptide fold change (10 µM) | probe-labelled cysteine peptide fold change (50 µM)
3 | RPS27A_P62979_121_RECPSDECGAGVFMASHFDR (UniProt P62979) | 0.0261 | -0.0993
4 | RPRD2_Q5VT52_88_LNLFYLANDVIQNCK (UniProt Q5VT52) | -0.0422 | 0.0619
